Measured values published in publication PMC10465447.
The exact form of at least one protein or probe is not confirmed. Weaker means in comparison with the reference protein, sequence or condition of that experiment. At least one verdict was read from the data and is not stated in words by the source.

Tests used:
Assay in all cases: magnetic graphene FET sandwich sensor
Details in all cases: anti-CTNI antibody magnetic beads; 5'-NH2; PBS pH 7.4 washes; binding buffer not stated; room temperature 2 h (solution pull-down); 30 min bead reaction on sensor; commercial protein; label: 3'-6-FAM; single-stranded DNA
[1] = system: CK-MB
[2] = biological target: bovine serum albumin (BSA) (bovine) (UniProt P02769)
[3] = biological target: cardiac troponin T (CTNT) (UniProt P45379)
[4] = biological target: human serum albumin (HSA) (human) (UniProt P02768)

Measured: binding result

CGTGCAGTACGCCAACCTTTCTCATGCGCTGCCCCTCTTA [CTNI aptamer]
binds more weakly: all assays above
